# From patent US20260284208A1, “SYSTEM” (Oxford University Innovation Limited, priority 2023, published 2026)
# Further values from the same series stand in other lists.
# System: library of 8,380 IKZF3 degrons (ZF-eGFP/mCherry reporter) in Jurkat cells
# Experiment: Pooled library screen (FACS, NGS, limma voom LogFC of positive vs negative read counts)
# Type: cell-based, human
# Experimental: A library of 8,380 IKZF3 degrons was cloned into pLVX-Sprout to create the eGFP/mCherry protein degradation reporter plasmid pool. A lentivirus pool was then generated using the Lenti-X lentiviral vector production method.
# Jurkat cells were transduced at a multiplicity of infection of <0.3 with the lentivirus vector library in order to maximise the number of cells with a single integration. Transductions were carried out in 6 well TC-treated cell culture dishes (Falcon) with 3×10^6 cells per well. Cells were incubated for 2 days at 37° C. and 5% CO2 before the supernatant was removed and replaced with fresh media. 6 days post-transduction, mCherry+ cells were isolated via FACS using the FACS Aria Fusion (BD) in a buffer containing PBS (Gibco), 2 mM EDTA (Gibco), 25 mM HEPES (Sigma) and 1% BSA (Sigma). 8 days later, cells were treated with DMSO or a thalidomide analog for 18 hours at 37° C. and 5% CO2. mCherry+GFPlow and NOT(mCherry+GFPlow) cells were sorted by FACS using the FACS Aria Fusion (BD). DMSO treated cells were used to set the mCherry+GFPlow gate and dead cells were excluded from sorting by staining cells with 1 μg/mL DAPI (ThermoFisher). gDNA was isolated using the Maxwell RSC 48 (Promega). gDNA from cells that were unsorted and untreated were also isolated to determine the library representation on the day of compound treatment. Throughout the screen >600× coverage of the library was maintained. 3 biological replicates were carried out with a new transduction taking place each time.
# A two-step PCR was used where the first PCR (PCR1) amplified the integrated degron sequence from gDNA and the second PCR (PCR2) added Illumina adaptors and barcodes to permit multiplexing. See Supp F for PCR1 and PCR2 primers. Q5 Hot Start High-Fidelity 2× Master Mix (New England Biolabs) was used for both PCRs. Sufficient gDNA was amplified in PCR1 in order to maintain >600× coverage and amplicons were purified using solid phase reversible immobilization (SPRI) beads (Beckman Coulter). Purified PCR1 products were analysed on the Tapestation 4200 (Agilent) to confirm purity prior to proceeding to PCR2. Sufficient PCR1 product was amplified in PCR2 in order to maintain >600× coverage and amplicons were run on a 2% agarose TAE gel. Target bands were excised and purified using the NucleoSpin Gel and PCR Clean-up Kit (Machery Nagel). Amplicons were analysed on the Tapestation 4200 and quantified using Qubit dsDNA HS kit (ThermoFisher). PCR products were pooled and sequenced as paired-reads on the NovaSeq (Illumina) using a SP2 200 cycles kit (Illumina).
# Count distributions, percentage of read mapping, library coverage and replicate correlation per sample were assessed for QC purposes.
# To carry out the library screen, we used the same plasmid construct as in our earlier flow cytometry assays, but pooling all 8,380 mutants together into one Jurkat population, ensuring a copy number of one plasmid per cell (FIG. 4B). […] These GFP-negative cells were then separated from the remaining GFP-positive population using fluorescence activated cell sorting (FACS). These two populations were then sequenced and the relative abundance of every mutant in both populations compared to provide a log FC value for each mutant sequence. This value indicated how frequently a sequence is observed in the GFP-negative population relative to the GFP-positive population, and therefore how effective a degron it is for that particular IMID compound.
compound,measurement,setting,value
O=C1CCC(N2C(=O)c3ccc(N4CCOCC4)cc3C2=O)C(=O)N1 (stereo not shown) [B03],B03_logFC,"Degron-ID 473, SEQ ID NO 4279, 46F_47C_49P_50V_52G_53A_54Q_55F_67L_",2.247
same,B03_logFC,"Degron-ID 961, SEQ ID NO 3743, 46F_47F_49D_50I_52G_53A_54C_55F_67L_",3.143
same,B03_logFC,"Degron-ID 968, SEQ ID NO 3735, 46F_47F_49D_50I_52G_53A_54K_55F_67L_",3.148
same,B03_logFC,"Degron-ID 971, SEQ ID NO 3697, 46F_47F_49D_50I_52G_53A_54N_55F_67L_",3.228
same,B03_logFC,"Degron-ID 972, SEQ ID NO 3727, 46F_47F_49D_50I_52G_53A_54P_55F_67L_",3.157
same,B03_logFC,"Degron-ID 973, SEQ ID NO 3676, 46F_47F_49D_50I_52G_53A_54Q_55F_67L_",3.285
same,B03_logFC,"Degron-ID 974, SEQ ID NO 3647, 46F_47F_49D_50I_52G_53A_54R_55F_67L_",3.355
same,B03_logFC,"Degron-ID 975, SEQ ID NO 3811, 46F_47F_49D_50I_52G_53A_54S_55F_67L_",2.989
same,B03_logFC,"Degron-ID 976, SEQ ID NO 3943, 46F_47F_49D_50I_52G_53A_54T_55F_67L",2.769
same,B03_logFC,"Degron-ID 1013, SEQ ID NO 3722, 46F_47F_49D_50V_52G_53A_54Q_55F_67L_",3.163
same,B03_logFC,"Degron-ID 1014, SEQ ID NO 3734, 46F_47F_49D_50V_52G_53A_54R_55F_67L_",3.151
same,B03_logFC,"Degron-ID 1016, SEQ ID NO 4271, 46F_47F_49D_50V_52G_53A_54T_55F_67L_",2.263
same,B03_logFC,"Degron-ID 1023, SEQ ID NO 3757, 46F_47F_49E_50I_52G_53A_54E_55F_67L_",3.114
same,B03_logFC,"Degron-ID 1024, SEQ ID NO 3935, 46F_47F_49E_50I_52G_53A_54F_55F_67L",2.781
same,B03_logFC,"Degron-ID 1025, SEQ ID NO 3864, 46F_47F_49E_50I_52G_53A_54G_55F_67L",2.896
same,B03_logFC,"Degron-ID 1026, SEQ ID NO 3658, 46F_47F_49E_50I_52G_53A_54H_55F_67L_",3.33
same,B03_logFC,"Degron-ID 1029, SEQ ID NO 3862, 46F_47F_49E_50I_52G_53A_54L_55F_67L",2.907
same,B03_logFC,"Degron-ID 1030, SEQ ID NO 3752, 46F_47F_49E_50I_52G_53A_54M_55F_67L_",3.121
same,B03_logFC,"Degron-ID 1032, SEQ ID NO 3651, 46F_47F_49E_50I_52G_53A_54P_55F_67L_",3.341
same,B03_logFC,"Degron-ID 1039, SEQ ID NO 3906, 46F_47F_49E_50I_52G_53A_54Y_55F_67L",2.842
same,B03_logFC,"Degron-ID 1063, SEQ ID NO 3779, 46F_47F_49E_50V_52G_53A_54E_55F_67L_",3.046
same,B03_logFC,"Degron-ID 1066, SEQ ID NO 3749, 46F_47F_49E_50V_52G_53A_54H_55F_67L_",3.124
same,B03_logFC,"Degron-ID 1067, SEQ ID NO 3797, 46F_47F_49E_50V_52G_53A_54I_55F_67L_",3.017
same,B03_logFC,"Degron-ID 1069, SEQ ID NO 4038, 46F_47F_49E_50V_52G_53A_54L_55F_67L",2.626
same,B03_logFC,"Degron-ID 1070, SEQ ID NO 3742, 46F_47F_49E_50V_52G_53A_54M_55F_67L_",3.145
same,B03_logFC,"Degron-ID 1072, SEQ ID NO 3712, 46F_47F_49E_50V_52G_53A_54P_55F_67L_",3.184
same,B03_logFC,"Degron-ID 1092, SEQ ID NO 3675, 46F_47F_49N_50I_52G_53A_54P_55F_67L_",3.287
same,B03_logFC,"Degron-ID 1093, SEQ ID NO 3920, 46F_47F_49N_50I_52G_53A_54Q_55F_67L",2.812
same,B03_logFC,"Degron-ID 1140, SEQ ID NO 3806, 46F_47F_49P_50I_52G_53A_54A_55F_67L_",2.999
same,B03_logFC,"Degron-ID 1143, SEQ ID NO 3907, 46F_47F_49P_50I_52G_53A_54E_55F_67L",2.84
same,B03_logFC,"Degron-ID 1145, SEQ ID NO 4326, 46F_47F_49P_50I_52G_53A_54G_55F_67L_",2.158
same,B03_logFC,"Degron-ID 1146, SEQ ID NO 3911, 46F_47F_49P_50I_52G_53A_54H_55F_67L",2.831
same,B03_logFC,"Degron-ID 1148, SEQ ID NO 3857, 46F_47F_49P_50I_52G_53A_54K_55F_67L",2.914
same,B03_logFC,"Degron-ID 1154, SEQ ID NO 3649, 46F_47F_49P_50I_52G_53A_54R_55F_67L_",3.35
same,B03_logFC,"Degron-ID 1155, SEQ ID NO 3717, 46F_47F_49P_50I_52G_53A_54S_55F_67L_",3.179
same,B03_logFC,"Degron-ID 1157, SEQ ID NO 3816, 46F_47F_49P_50I_52G_53A_54V_55F_67L_",2.98
same,B03_logFC,"Degron-ID 1159, SEQ ID NO 3848, 46F_47F_49P_50I_52G_53A_54Y_55F_67L",2.926
same,B03_logFC,"Degron-ID 1180, SEQ ID NO 3859, 46F_47F_49P_50V_52G_53A_54A_55F_67L",2.907
same,B03_logFC,"Degron-ID 1181, SEQ ID NO 3653, 46F_47F_49P_50V_52G_53A_54C_55F_67L_",3.339
same,B03_logFC,"Degron-ID 1184, SEQ ID NO 4299, 46F_47F_49P_50V_52G_53A_54F_55F_67L_",2.222
same,B03_logFC,"Degron-ID 1185, SEQ ID NO 4414, 46F_47F_49P_50V_52G_53A_54G_55F_67L_",2.026
same,B03_logFC,"Degron-ID 1186, SEQ ID NO 3908, 46F_47F_49P_50V_52G_53A_54H_55F_67L",2.837
same,B03_logFC,"Degron-ID 1187, SEQ ID NO 4376, 46F_47F_49P_50V_52G_53A_54I_55F_67L_",2.075
